Data from article PMC6315541, “Nile Tilapia Derived Antimicrobial Peptide TP4 Exerts Antineoplastic Activity Through Microtubule Disruption” (Marine Drugs, 2018).
Results are given in words; binding and its absence hold for the method and conditions named. Binding seen in cells or lysates may run through a third protein. A yes stands for co-enrichment or nearness to the bait. Other partners may have been found.

Amino acid sequences for entries named in this document (tags omitted).
UniProt Q9BQE3: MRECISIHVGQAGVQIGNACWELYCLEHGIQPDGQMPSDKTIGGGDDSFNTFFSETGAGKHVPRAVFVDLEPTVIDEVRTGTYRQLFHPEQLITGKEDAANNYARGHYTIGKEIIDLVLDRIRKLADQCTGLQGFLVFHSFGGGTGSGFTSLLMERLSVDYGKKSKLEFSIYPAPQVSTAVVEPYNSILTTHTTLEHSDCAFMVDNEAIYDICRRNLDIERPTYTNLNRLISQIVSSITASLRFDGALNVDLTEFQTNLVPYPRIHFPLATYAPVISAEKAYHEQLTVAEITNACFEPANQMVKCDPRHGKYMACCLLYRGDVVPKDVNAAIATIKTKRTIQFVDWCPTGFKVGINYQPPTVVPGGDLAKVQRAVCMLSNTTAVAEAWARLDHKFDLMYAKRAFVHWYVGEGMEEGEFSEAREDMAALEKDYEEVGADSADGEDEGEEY

Biological target: T1, Tilapia piscidin (TP) 4 (Nile tilapia (Oreochromis niloticus))
T1 sequence (peptide): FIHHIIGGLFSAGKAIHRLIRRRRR
Assay: affinity purification with mass spectrometry; A549 cells treated with 10 μg/mL TP4 for 3 h; lysate (1 mg; 50 mM Tris-HCl pH 8.0, 150 mM NaCl, 1% Igepal CA-630) precipitated with rabbit anti-TP4 antibody and magnetic beads; major band of about 55 kDa excised, in-gel tryptic digestion, LC-MS/MS, Mascot search; only the target purified

- binding: binds
Substance: α-Tubulin (from UniProt Q9BQE3 1-449)
